± gives the standard deviation. This is a selection; strong and weak results do not stand in their true shares. The uncertainty is large for many entries.

The subject of this assay is EfPiwi piRISC loaded with piRNA #1 (26 nt). Kind of assay: pre-steady-state target cleavage rate (min^-1); guide: piRNA #1 5'p-UGAGGUAGUAGGUUGUAUAGUAUCCA; MIWI and MILI are mouse PIWI proteins and EfPiwi is from a freshwater sponge; tags in brackets are library labels; higher = faster piRNA-guided slicing of the target. The note with it: auxiliary factor: 500 nM Ephydatia muelleri Gtsf1. Put shortly: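 Active affinity-purified piRISC carrying one synthetic guide (1 nM) was mixed with a transcribed, DNA-blocked target RNA library […] in HEPES–potassium acetate buffer at 33 °C for 0–8 or 0–960 min, with or without 500 nM GTSF1 partner protein. Uncleaved targets were then sequenced and normalised to depth and to weakly complementary targets. Three trials were pooled, and k3 was capped at 0.0001 min^-1. A burst-and-steady-state fit was applied to obtain the pre-steady-state cleavage rate.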
For the sequence GGAGAGGAUACUAUUCAACCUACUUCCUCA, the “pre-steady-state target cleavage rate” value stood at 0.00313 ± 0.0024.

On to GGAGACCUAAGUAUACAACCUACUACGUCA, for which the “pre-steady-state target cleavage rate” value stood at 0.00262 ± 0.0028.

For the sequence GGAGACGAUACUAUAGAACGUACUACCUCA, the “pre-steady-state target cleavage rate” value was found to be 0.00177 ± 0.0015.

In the case of GGAGUGGAUAGUAUACAACCUACUACCUCA, the “pre-steady-state target cleavage rate” value worked out at 0.00712 ± 0.0031.

As to GGAGACCUAUGUAUACAACCUACUACGACA, the “pre-steady-state target cleavage rate” value is 0.000807 ± 0.011.

On to GGAGACCUAAGUAUACAAGCUACUACCUCA, for which the “pre-steady-state target cleavage rate” value is 0.00331 ± 0.0046.

Regarding GGAGUGGAUACUAUACAACCUACUACCGUCA, the “pre-steady-state target cleavage rate” value was determined as 0.00748 ± 0.0027.

Take GGAGACCUUACUAUACAACCUACUAGCACA: the “pre-steady-state target cleavage rate” value was determined as 0.00206 ± 0.0025.

For the sequence GGAGACCUAUGUAACAACCUACUACCUCA, the “pre-steady-state target cleavage rate” value was 0.0014 ± 0.0056.

On to GGAGUGGAUAGUAUACAACCUACAACCUCA, for which the “pre-steady-state target cleavage rate” value was found to be 0.00254 ± 0.0017.

For GGAGUGGAUACUUUACAACCUACUAGCUCA, the “pre-steady-state target cleavage rate” value turned out to be 0.0012 ± 0.0027.

As for GGAGACGAUACUAUACAACCUACUACCGCA, the “pre-steady-state target cleavage rate” value is 0.00926 ± 0.0033.

As to GGAGACCAUAGUAUACAACCUACUACCUCA, the “pre-steady-state target cleavage rate” value stood at 0.022 ± 0.0084.

Regarding GGAGAGGAUAUAUACAACCUACUACCUCA, the “pre-steady-state target cleavage rate” value came to 0.00764 ± 0.0042.

Regarding GGAGACCUAUCUUUACAACCUACUACGUCA, the “pre-steady-state target cleavage rate” value came out at 0.00151 ± 0.0043.

GGAGACCUUACUAUACAACCUACAACGUCA: the “pre-steady-state target cleavage rate” value was found to be 0.00253 ± 0.0057.

These data come from the supplement of paper PMC10338343.
